At least one structure is not confirmed: it was looked up by name or label, or the drawing left a doubt.
Molecular target: T1, 5-HT1A receptor (Rattus norvegicus, UniProt P19327)
T1 construct: from tissue; host or cells: rat hippocampus
T1 sequence (P19327 1-422): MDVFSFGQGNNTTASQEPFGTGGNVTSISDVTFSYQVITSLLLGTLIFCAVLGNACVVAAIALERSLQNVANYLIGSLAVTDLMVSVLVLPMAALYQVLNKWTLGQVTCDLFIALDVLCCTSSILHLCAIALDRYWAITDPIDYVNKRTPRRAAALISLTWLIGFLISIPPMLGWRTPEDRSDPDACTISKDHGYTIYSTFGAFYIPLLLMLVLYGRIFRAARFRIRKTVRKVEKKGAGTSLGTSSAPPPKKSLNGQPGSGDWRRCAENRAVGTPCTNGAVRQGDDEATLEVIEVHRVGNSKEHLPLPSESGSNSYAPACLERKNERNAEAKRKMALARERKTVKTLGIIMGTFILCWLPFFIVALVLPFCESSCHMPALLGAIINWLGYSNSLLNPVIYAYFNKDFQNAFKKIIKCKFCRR
Assay: inhibition of [3H] 8-hydroxy-2-(di-n-propylamino)tetralin binding at 5-HT1A receptor sites
Conditions: rat hippocampal tissue

Compound: COc1cccc(C(CCN2CCN(Cc3ccc(Cl)cc3)CC2)C2(O)CCCCC2)c1 (stereo not shown) [Example 5, 1-[3-[4-[(4-Chlorophenyl)methyl]-1-piperazinyl]-1-(3-methoxyphenyl)propyl]cyclohexanol]
- affinity at 5-HT1A receptor binding sites (in words): strong affinity at 5-HT1A receptor binding sites
